This is one part of the list. Many values rest on one well or one pass, so single values are uncertain.
tested on: Saccharomyces cerevisiae BY4743; assay: growth (OD600) with compound + IPBC relative to untreated control; higher = less growth inhibition; settings: compound concentration: 133 uM; IPBC concentration: 0.5 ug/ml; 20 h
Protocol: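 NMCCC compounds (133 uM) combined with IPBC (0.5 ug/ml) against Saccharomyces cerevisiae BY4743 in YPD, 96-well plates. Growth was read as OD600 at 20 h and expressed as % of the untreated control. Single pass.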

Row | Compound | growth [%]
1 | CCN(CC)CCNc1nc2c(c(=O)[nH]c(=O)n2C)n1CC(C)C + CCCCNC(=O)OCC#CI [3-iodo-2-propynyl butylcarbamate (IPBC)] | 91.1
2 | COc1ccc(CCNC(=O)C2CCC(=O)N2S(=O)(=O)c2ccc(C)cc2)cc1 (stereo unspecified) + CCCCNC(=O)OCC#CI [3-iodo-2-propynyl butylcarbamate (IPBC)] | 89.2
3 | C[S](=O)(=O)NC1=CC=CC(=C1)\C2=N\N(C(C2)C3=CC=CC=C3O)[S](C)(=O)=O (stereo unspecified) + CCCCNC(=O)OCC#CI [3-iodo-2-propynyl butylcarbamate (IPBC)] | 105
4 | CC(C)CCN1CCC(CNS(=O)(=O)c2ccc3c(c2)C(C)(C)C(=O)N3C)CC1 + CCCCNC(=O)OCC#CI [3-iodo-2-propynyl butylcarbamate (IPBC)] | 108
5 | CCOc1ccc(N2C(=O)CCS2(=O)=O)cc1S(=O)(=O)N(Cc1ccccc1)C(C)C + CCCCNC(=O)OCC#CI [3-iodo-2-propynyl butylcarbamate (IPBC)] | 78.6
6 | CN(C(=O)COCc1cc(-c2ccc(F)cc2)on1)c1ccccc1 + CCCCNC(=O)OCC#CI [3-iodo-2-propynyl butylcarbamate (IPBC)] | 109
7 | COc1ccc(OC)c(C(C)NC(=O)CSc2nc(C)c(C)c(C)c2C#N)c1 (stereo unspecified) + CCCCNC(=O)OCC#CI [3-iodo-2-propynyl butylcarbamate (IPBC)] | 89.9
8 | CCOC(=O)c1c(S(=O)(=O)NCC(=O)Nc2nc3ccc(Cl)cc3s2)c(C)n(C)c1C + CCCCNC(=O)OCC#CI [3-iodo-2-propynyl butylcarbamate (IPBC)] | 83.5
9 | COc1ccc(Cl)cc1-c1n[nH]c(SCC(=O)N(CCC#N)c2ccccc2)n1 + CCCCNC(=O)OCC#CI [3-iodo-2-propynyl butylcarbamate (IPBC)] | 112
10 | CCOC(=O)c1c(C)c(-c2ccccc2)n(CC(=O)NCCN2CCCCC2C)c1C (stereo unspecified) + CCCCNC(=O)OCC#CI [3-iodo-2-propynyl butylcarbamate (IPBC)] | 108
11 | O=C(CSCc1ccccc1)Nc1nnc(Cc2ccc(Cl)cc2)s1 + CCCCNC(=O)OCC#CI [3-iodo-2-propynyl butylcarbamate (IPBC)] | 89.1
12 | Cc1nc2ccc(S(=O)(=O)NC(CC(C)C)C(=O)N3CCCCCC3)cc2s1 (stereo unspecified) + CCCCNC(=O)OCC#CI [3-iodo-2-propynyl butylcarbamate (IPBC)] | 97.7
13 | CN(C)S(=O)(=O)c1ccc2c(c1)N(CC(=O)N1CCCCCC1)CCS2 + CCCCNC(=O)OCC#CI [3-iodo-2-propynyl butylcarbamate (IPBC)] | 90.4
14 | O=C(Nc1ccc(Cl)c(C(F)(F)F)c1)c1cc2ncccn2n1 + CCCCNC(=O)OCC#CI [3-iodo-2-propynyl butylcarbamate (IPBC)] | 94.2
15 | Cc1cc(C)c(S(=O)(=O)N2CCCCC2)cc1N(C)S(=O)(=O)c1ccc(Cl)cc1 + CCCCNC(=O)OCC#CI [3-iodo-2-propynyl butylcarbamate (IPBC)] | 103
16 | CCN(CC)C1=CC2=C(C=C1F)C(=O)\C(=C/N2C)[S](=O)(=O)C3=CC=C(C)C=C3 + CCCCNC(=O)OCC#CI [3-iodo-2-propynyl butylcarbamate (IPBC)] | 97.1
17 | Cc1ccccc1OCCN1C(=O)C(=O)c2cccc(C)c21 + CCCCNC(=O)OCC#CI [3-iodo-2-propynyl butylcarbamate (IPBC)] | 102
18 | CCOC(=O)C1(C)\C=C(\NC2=CC=CC(=C2)C)C(=O)N1C3=CC=CC=C3 (stereo unspecified) + CCCCNC(=O)OCC#CI [3-iodo-2-propynyl butylcarbamate (IPBC)] | 87.5
19 | O=C(CCc1ccc(S(=O)(=O)N2CCCCCC2)cc1)OCC(=O)N1CCNC1=O + CCCCNC(=O)OCC#CI [3-iodo-2-propynyl butylcarbamate (IPBC)] | 115
20 | CN1\C=C/C(=C\C1=O)C(=O)NCC2=CC=CC=C2OC(F)(F)F + CCCCNC(=O)OCC#CI [3-iodo-2-propynyl butylcarbamate (IPBC)] | 100
21 | COC1=CC=CC2=C1N(CC3=CC=CC(=C3)Cl)\C=C(C#N)/C2=O + CCCCNC(=O)OCC#CI [3-iodo-2-propynyl butylcarbamate (IPBC)] | 100

Another view of some results above:

| Row | Compound | growth [%] |
| --- | --- | --- |
| 13 | CN(C)S(=O)(=O)c1ccc2c(c1)N(CC(=O)N1CCCCCC1)CCS2 + CCCCNC(=O)OCC#CI [3-iodo-2-propynyl butylcarbamate (IPBC)] | 90.4 |
| 21 | COC1=CC=CC2=C1N(CC3=CC=CC(=C3)Cl)\C=C(C#N)/C2=O + CCCCNC(=O)OCC#CI [3-iodo-2-propynyl butylcarbamate (IPBC)] | 100 |

Reference: the supplement of paper PMC8007513
